Taken from: PubChem BioAssay AID652243 (Drosophila RNAi Screening Center, 2013)
Screen: 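Fly genes required for human androgen receptor driven transcription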 (primary screen). System: Drosophila S2R+ cells. Knock-down reagent: long dsRNA against Drosophila genes. Time to read-out: 72 h (48 h, then 24 h hormone). Challenge: synthetic androgen R1881 at 10 nM for 24 h. Detection: 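Per-well raw luminescence of the androgen-driven firefly reporter and of the Renilla control, two replicates each, without normalisation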. Direction: firefly reporter light: higher = more light from androgen-responsive reporter; Renilla control light: higher = more constitutive control signal (cell number, transfection). Rule for the call: 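Hit when the log firefly-to-Renilla ratio dropped or increased by a fixed fold versus the mean of GFP or LacZ controls across duplicate plates; lowering cut given as 1.5 and as 3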. Meaning of the calls: active = hit: reporter lowered or raised; inactive = no hit.
The screen tested about 24,000 reagents; below is a random part of those that have a named target and a result. Of all reagents, 246 (1%) were called active. 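Plates not normalised; calls are printed but the firefly/Renilla ratio behind them is not deposited; fold cut for lowering reported inconsistently.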 The raw values are shown without normalisation. Names joined by + are all predicted targets of the reagent. Not given: the amount of reagent.

For CG18265 [DRSC10310], how do the results read?
firefly reporter light, replicate 1: 43058; firefly reporter light, replicate 2: 51397; Renilla control light, replicate 1: 6.70e5; Renilla control light, replicate 2: 1.37e6; call: inactive

For ste24c + CR30461 (retired record) [DRSC05639], how do the results read?
firefly reporter light, replicate 1: 2.46e5; firefly reporter light, replicate 2: 3.07e5; Renilla control light, replicate 1: 3.06e5; Renilla control light, replicate 2: 4.87e5; call: inactive

For ste24c + CR30461 (retired record) [DRSC07316], how do the results read?
firefly reporter light, replicate 1: 1.08e5; firefly reporter light, replicate 2: 85808; Renilla control light, replicate 1: 1.32e6; Renilla control light, replicate 2: 1.32e6; call: inactive

What did the screen give for Coq6 (Coenzyme Q6) [DRSC03040]?
firefly reporter light, replicate 1: 2.92e5; firefly reporter light, replicate 2: 3.69e5; Renilla control light, replicate 1: 1.57e6; Renilla control light, replicate 2: 1.48e6; call: active

For Coq6 (Coenzyme Q6) [DRSC29622], what was measured?
firefly reporter light, replicate 1: 7.99e5; firefly reporter light, replicate 2: 6.42e5; Renilla control light, replicate 1: 9.68e5; Renilla control light, replicate 2: 9.68e5; call: inactive

Which result is listed for CG2201 [DRSC03721]?
firefly reporter light, replicate 1: 7.10e5; firefly reporter light, replicate 2: 8.06e5; Renilla control light, replicate 1: 2.29e6; Renilla control light, replicate 2: 2.39e6; call: inactive

What is on record for CG2201 [DRSC36854]?
call: inactive

Which result is listed for CG9095 [DRSC20150]?
firefly reporter light, replicate 1: 3.25e5; firefly reporter light, replicate 2: 3.45e5; Renilla control light, replicate 1: 2.32e6; Renilla control light, replicate 2: 2.27e6; call: inactive

Entries listed so far called active, once more:
Coq6 (Coenzyme Q6) [DRSC03040] | firefly reporter light, replicate 1: 2.92e5; firefly reporter light, replicate 2: 3.69e5; Renilla control light, replicate 1: 1.57e6; Renilla control light, replicate 2: 1.48e6; call: active

Continued:
How did the screen score Rbsn-5 (Rabenosyn-5) [DRSC03094]?
firefly reporter light, replicate 1: 9.58e5; firefly reporter light, replicate 2: 1.14e6; Renilla control light, replicate 1: 2.19e6; Renilla control light, replicate 2: 2.26e6; call: inactive

With Rbsn-5 (Rabenosyn-5) [DRSC27756], what was measured?
firefly reporter light, replicate 1: 3.05e5; firefly reporter light, replicate 2: 1.83e5; Renilla control light, replicate 1: 4.28e5; Renilla control light, replicate 2: 4.67e5; call: inactive

Which result is listed for GluRIIB (Glutamate receptor IIB) [DRSC03335]?
firefly reporter light, replicate 1: 1.38e5; firefly reporter light, replicate 2: 1.64e5; Renilla control light, replicate 1: 1.06e6; Renilla control light, replicate 2: 9.55e5; call: inactive

What is on record for ND-B14.5A (NADH dehydrogenase (ubiquinone) B14.5 A subunit) [DRSC18500]?
firefly reporter light, replicate 1: 3.73e5; firefly reporter light, replicate 2: 3.73e5; Renilla control light, replicate 1: 4.33e6; Renilla control light, replicate 2: 3.30e6; call: inactive
